Assay results reported in publication PMC5190095.
These are yes or no findings as the source states them, for the method shown. Binding seen in cells or lysates may run through a third protein. Some results given as binding are weak or reduced against the parent protein; the word gives no strength. For part of these data: Where a sequence is shown, tags or fusion partners need not be part of it.

Amino acid sequences for entries named in this document (tags omitted).
UniProt Q99471: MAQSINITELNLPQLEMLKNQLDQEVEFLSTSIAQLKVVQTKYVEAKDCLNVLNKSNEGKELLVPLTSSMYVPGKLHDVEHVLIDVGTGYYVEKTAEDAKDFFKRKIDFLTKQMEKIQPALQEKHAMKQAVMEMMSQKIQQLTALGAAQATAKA

What was measured:
[1] = target: T1, Myc-tagged ΔNp63α (human) (UniProt Q9H3D4); assay: co-IP; H1299 cells co-transfected with Myc-tagged p63 isoform plus FLAG-MM1; EBC250 lysis buffer (250 mM NaCl, 0.5% NP-40, pH 8.0); IP with anti-FLAG or anti-Myc tag at 4°C, protein A-agarose; IB with anti-p63 and anti-FLAG
T1 sequence: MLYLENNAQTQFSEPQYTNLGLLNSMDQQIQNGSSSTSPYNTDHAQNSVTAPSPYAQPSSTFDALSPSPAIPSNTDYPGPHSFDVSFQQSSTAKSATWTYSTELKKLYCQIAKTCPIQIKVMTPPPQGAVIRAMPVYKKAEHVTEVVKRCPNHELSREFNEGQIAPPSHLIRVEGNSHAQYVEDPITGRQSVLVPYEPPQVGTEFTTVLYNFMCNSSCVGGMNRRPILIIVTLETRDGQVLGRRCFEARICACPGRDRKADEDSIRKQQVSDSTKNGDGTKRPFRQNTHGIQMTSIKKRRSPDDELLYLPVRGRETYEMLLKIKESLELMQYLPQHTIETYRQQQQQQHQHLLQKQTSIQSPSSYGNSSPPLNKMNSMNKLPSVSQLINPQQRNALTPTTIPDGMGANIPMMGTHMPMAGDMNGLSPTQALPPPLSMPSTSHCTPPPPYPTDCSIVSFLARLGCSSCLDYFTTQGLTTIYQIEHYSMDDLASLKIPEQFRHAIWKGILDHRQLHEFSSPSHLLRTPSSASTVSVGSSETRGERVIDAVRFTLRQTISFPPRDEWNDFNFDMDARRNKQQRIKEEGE

[2] = target: T2, Myc-tagged ΔNp63γ (human) (UniProt Q9H3D4); assay: as above
T2 sequence: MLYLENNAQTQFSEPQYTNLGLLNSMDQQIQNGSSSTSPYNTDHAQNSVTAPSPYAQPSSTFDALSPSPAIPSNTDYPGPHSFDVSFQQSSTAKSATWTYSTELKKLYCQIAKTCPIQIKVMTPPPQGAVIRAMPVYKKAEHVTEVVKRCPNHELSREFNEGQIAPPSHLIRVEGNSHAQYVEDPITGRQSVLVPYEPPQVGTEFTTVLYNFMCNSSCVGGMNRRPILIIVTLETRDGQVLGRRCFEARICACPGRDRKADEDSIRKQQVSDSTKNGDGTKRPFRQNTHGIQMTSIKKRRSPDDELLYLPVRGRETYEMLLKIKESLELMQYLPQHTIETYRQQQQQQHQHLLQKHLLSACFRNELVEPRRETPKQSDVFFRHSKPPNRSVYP

[3] = target: T3, endogenous ΔNp63α (human (endogenous in MCF10A)) (UniProt Q9H3D4); assay: co-IP; endogenous proteins in MCF10A lysate; EBC250 lysis buffer; IP with anti-p63 or anti-MM1 at 4°C, normal mouse or rabbit IgG as control; IB with anti-p63 and anti-MM1
T3 sequence: T1 sequence

| binding [1] | binding [2] | binding [3] | Substance |
| --- | --- | --- | --- |
| binds | no binding | – | FLAG-tagged MM1 (from UniProt Q99471 1-154) |
| – | – | binds | endogenous MM1 (from UniProt Q99471 1-154) |
